# Among all 400,000 compounds or so, about 13,000 (3.2%) were called active. The shares of active, inactive and inconclusive entries below differ from those in the screen. The call rests on the fitted dose curve; in most records, active means well fitted cell-killing curve with a large enough effect; inconclusive means small, poorly fitted or top-dose-only effect, or effect the other way; inactive means flat fitted curve, though single readings scatter. Where the call is inconclusive, the potency comes from a doubtful curve fit.
# Test: qHTS assay for MDR1-selective chemotherapeutics: Primary screen using the drug-selected MDR subline cells KB-V1; further: nearly all actives have a fitted effect of over 60% in size
# Settings: KB-V1 MDR cells viability, CellTiter-Glo, 72 h; activity change, negative = cytotoxicity: at 46.1 µM (top of the series)
# Summary of the method: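 KB-V1 cells (P-gp-expressing MDR subline of KB-3-1) in phenol-red-free DMEM with 10% FBS were exposed to library compounds over a concentration series for 72 h at 37 degrees C. Viability read by CellTiter-Glo luminescence; concentration-effect curves fitted after normalization.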
# On the % scale 0 is the no-effect control and ±100 the full control effect; potency means the concentration at half of the fitted maximal effect.
SMILES,"activity change, negative = cytotoxicity",Potency
OCCC1CN(Cc2ccccc2O)CCN1CCCc1ccccc1 (centres undefined),inactive: -23.2%,
CC1=Nc2cc(C(=O)NCCN3CCOCC3)ccc2Sc2c(C)ccc(C)c21,,active: 18.4 µM
C=CCNC(=S)NNc1nc(N2CCCC2)nc(N2CCCC2)n1,inactive: -13.9%,
C=C1c2cc3c(cc2NC(=S)N1Cc1ccccc1)OCO3,inactive: -17.6%,
CC1CC(C)CN(C(=O)CN(C)S(=O)(=O)c2ccc3c(c2)c(=O)n(C)c(=O)n3C)C1 (centres undefined),inactive: -18.3%,
FC(F)Oc1ccc(NC(=S)NCc2cccnc2)cc1,,"inconclusive: 16.4 µM [cytotoxic, partial curve, poor fit]"
O=C(Nc1nnc(SCC(=O)N2CCCc3ccccc32)s1)c1ccccc1,,"inconclusive: 23.1 µM [cytotoxic, single point]"
Cc1cccc(C(=O)NCC(C)NC(=O)c2cccc(C)c2)c1 (centres undefined),,"inconclusive: 20.6 µM [cytotoxic, partial curve, poor fit]"
Cc1cc(=O)oc2cc(OCCC[n+]3ccccc3)ccc12,,"inconclusive: 29.1 µM [rising, single point]"
COc1ccccc1NC(=O)/C(=C/c1cccc([N+](=O)[O-])c1)c1ccccc1,,active: 5.8 µM
CCCCCc1ccc(-c2cn(CC3CCCCC3)nn2)cc1,,"inconclusive: 29.1 µM [cytotoxic, single point]"
Cc1ccsc1/C=N/N=C/c1sccc1C,inactive: 5.59%,
Cc1cccc(C(=O)Nc2ccc(S(=O)(=O)N(Cc3ccccc3)c3ccccc3)cc2)c1,,"inconclusive: 2.31 µM [cytotoxic, full curve]"
COC(=O)[C@H](CC(C)C)NC(=O)Nc1ccc(S(N)(=O)=O)cc1,,"inconclusive: 13 µM [rising, partial curve]"
COc1cc(NC(=O)CNS(=O)(=O)c2cccs2)cc(OC)c1OC,,"inconclusive: 20.6 µM [rising, single point]"
CC(C)C[C@H](NC(=O)[C@@H]1Cc2c([nH]c3ccccc23)C2c3ccccc3C(=O)N21)C(=O)NCC1CCCO1 (some centres undefined),,"inconclusive: 9.2 µM [rising, partial curve]"
Cc1ccc(C)c(Cn2c(=O)n(Cc3ccccc3)c(=O)c3c2c2cc(C)ccc2n3C)c1,,"inconclusive: 29.1 µM [rising, single point]"
COc1ccc([N+](=O)[O-])cc1NC(=O)CC1SC(=Nc2cccc(C)c2C)N(/N=C/c2cccc(OC)c2OC)C1=O (centres undefined),,"inconclusive: 29.1 µM [rising, single point]"
COc1ccc(NC(=O)c2n[nH]c(=O)c3ccccc23)cc1S(=O)(=O)N1CCCCC1,inconclusive: -41.8% [cytotoxic],

# 2 entries from above, with tabs:
SMILES	activity change, negative = cytotoxicity	Potency
Cc1cc(=O)oc2cc(OCCC[n+]3ccccc3)ccc12		inconclusive: 29.1 µM [rising, single point]
COc1ccccc1NC(=O)/C(=C/c1cccc([N+](=O)[O-])c1)c1ccccc1		active: 5.8 µM

# — PubChem BioAssay AID1347076 (National Center for Advancing Translational Sciences (NCATS), 2019)
